Measured values reported in PubChem BioAssay AID2685 (National Center for Advancing Translational Sciences (NCATS), 2010).
About 2,100 (0.66%) of roughly 320,000 compounds were called active. The shares of active, inactive and inconclusive entries below differ from those in the screen. The call rests on the fitted dose curve; in most records, active means well fitted inhibition curve with a large enough effect in the signal ratio, with a control signal flat (not every such curve was filed as active); inconclusive means small, poorly fitted or top-dose-only effect, or effect the other way, or a change in a side signal; inactive means flat fitted curve, though single readings scatter; the % refers to the signal ratio. Potencies beside an inconclusive call are fits to weak or partial responses and may not hold up.

assay: qHTS Assay for Lipid Storage Modulators in Drosophila S3 Cells; conditions: BODIPY lipid droplet fluorescence, 18-24 h, cells fed with added oleic acid; lipid storage change, negative = inhibition: at 46.1 µM (top of the series) unless noted
Method in brief: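 Drosophila S3 cells got compounds at several concentrations plus oleic acid (400 uM solution). Laser-scanning cytometry with 488 nm excitation read lipid droplets at 500-530 nm and cells at 575-640 nm. Percent activity was relative to 20 uM Triacsin C.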
On the % scale 0 is the no-effect control and ±100 the full control effect; potency means the concentration at half of the fitted maximal effect.

Row | SMILES | lipid storage change, negative = inhibition | Potency
1 | COc1ccc(CN2CCC(=O)N([C@H](CO)Cc3ccccc3)CC2)cc1OC | inconclusive: 1.82% | 
2 | CC(C)(C)OC(=O)N1CCC(Cc2cc(-c3cccnc3)no2)(C(=O)O)CC1 |  | inconclusive: 2.59 µM [activator, partial curve]
3 | CC1CCCN(C(=O)COC(=O)CNC(=O)c2sc3ccccc3c2Cl)C1 (centres undefined) |  | inconclusive: 0.116 µM [falling, full curve, poor fit]
4 | O=S(=O)(c1ccc(Cl)cc1)N1CCN(C(=S)Nc2ccc(F)c(Cl)c2)CC1 |  | inconclusive: 14.6 µM [activator, partial curve]
5 | O=C(CSc1ccccc1)Nc1ccc(S(=O)(=O)Nc2ncccn2)cc1 | inconclusive: -6.27% | 
6 | O=C(CC1SC(N2CCCCC2)=NC1=O)Nc1cccc(C(=O)Nc2ncccc2O)c1 (centres undefined) | inconclusive: 15.1% | 
7 | O=C(Nc1cccc(C(F)(F)F)c1)c1ccc(Cn2cc(Br)cn2)o1 | inconclusive: -40.6% | 
8 | CCc1nnc(SCC(=O)Nc2ccc3c(c2)OCO3)n1CC |  | inconclusive: 1.3 µM [activator, full curve]
9 | CC(OC(=O)C1CC1C)C(=O)Nc1ccc(Cl)cn1 (centres undefined) | inconclusive | 
10 | COc1ccnc(-n2cccc2C=O)c1C#N | inconclusive: -27.3% | 
11 | CC1=C(C(=O)OC(C)C)C(c2ccc(O)cc2)NC(=O)N1 (centres undefined) | inconclusive: 9.3% | 
12 | Cc1cc2[nH]ncc2cc1NC(N)=S |  | inconclusive: 6.51 µM [rising, single point]
13 | CCOc1ccccc1NCc1cc(=O)oc2cc(C)c(O)cc12 |  | active: 3.66 µM
14 | CC(=O)Nc1ccc(S(=O)(=O)N2CCN(S(=O)(=O)c3ccccc3)CC2)cc1 | inconclusive: 12% | 
15 | Cc1ccc(NC(=O)C2C3C=CC4(O3)C2C(=O)N(CCCN2CCCCC2)C4C(=O)NC2CCCCC2)cc1C (centres undefined) |  | inconclusive: 11.6 µM [falling, single point]
16 | COC(=O)c1ccccc1NC(=O)CCn1c(=O)oc2ccccc21 | inconclusive: 28.7% | 
17 | CCn1c(SCC(=O)N/N=C/C(C)=C\c2ccco2)nnc1-c1ccccc1 |  | inconclusive: 29.1 µM [activator, single point]
18 | Cc1ccccc1NC(=O)CC(C)S(=O)(=O)c1ccc2c(c1)NC(=O)CO2 (centres undefined) | inconclusive: 1.64% | 
19 | COc1cccc(NC(=O)CN(C)C(=O)c2c(-c3c(F)cccc3Cl)noc2C)c1 | inconclusive: -4.44% | 
20 | O=c1c2ccccc2c(-c2ccccc2)nn1Cc1ccc(Cl)cc1 | inconclusive: 14.5% | 
21 | COc1ccc(NC(=O)CN(C)C(=O)Cc2ccc3c(c2)OCCO3)cc1 | inconclusive | 
22 | CN(CC(=O)Nc1c(Cl)cccc1Cl)C(=O)c1ccc2ccccc2n1 |  | inconclusive: 4.61 µM [activator, single point]
23 | CCN1CCN(C(CNS(=O)(=O)c2ccc(C)cc2)c2ccccc2)CC1 (centres undefined) | inconclusive: 24.1% | 
24 | COC(=O)c1ccc(N=Cc2c(-c3ccccc3)[nH][nH]c2=O)cc1 | inconclusive: -19.8% | 
25 | COc1ccc(-c2nc(-c3ccccn3)nc(N3CCN(C)CC3)c2C#N)cc1 | inconclusive: 14.7% | 

3 compounds already listed, ordered by length of the SMILES, largest number first.
Row | SMILES | lipid storage change, negative = inhibition | Potency
6 | O=C(CC1SC(N2CCCCC2)=NC1=O)Nc1cccc(C(=O)Nc2ncccc2O)c1 (centres undefined) | inconclusive: 15.1% | 
1 | COc1ccc(CN2CCC(=O)N([C@H](CO)Cc3ccccc3)CC2)cc1OC | inconclusive: 1.82% | 
11 | CC1=C(C(=O)OC(C)C)C(c2ccc(O)cc2)NC(=O)N1 (centres undefined) | inconclusive: 9.3% | 

(further entries)

Row | SMILES | lipid storage change, negative = inhibition | Potency
26 | COc1ccc(-c2nc(CS(=O)CC(=O)NCc3ccc(Cl)cc3)c(C)o2)cc1OC (centres undefined) |  | inconclusive: 20.6 µM [activator, single point]
27 | CCCN(CC(=O)Nc1ccccc1OC)C(=O)Cn1[nH]c(=O)c2ccccc2c1=O | inconclusive: 15.4% | 
28 | CC(=O)Nc1ccc(NCc2ccc(C)s2)cc1 |  | inconclusive: 0.0366 µM [falling, full curve, poor fit]
29 | O=C(NCc1ccco1)c1cc(-c2ccccn2)nc2ccccc12 |  | inconclusive: 0.0052 µM [activator, full curve, poor fit]
30 | Nc1cc(N2CCCC2)c(Cl)cc1[N+](=O)[O-] | inconclusive: -45% | 
31 | O=C(Nc1ccccc1C(=O)N1CCOCC1)c1cc2ccccc2o1 | inconclusive: -12.7% | 
32 | Cc1ccc(S(=O)(=O)c2nc(S(C)(=O)=O)sc2N2CC(C)OC(C)C2)cc1 (centres undefined) | inconclusive: -28.1% | 
33 | COc1ccc(NC(=O)N[C@@H](Cc2ccccc2)C(=O)NN)cc1 | inconclusive: 27.9% | 
34 | COC(=O)c1cccc(NC(=S)Nc2ccc(Cl)c(Cl)c2)c1 | inconclusive: -28.2% | 
35 | CCOC(=O)c1ccc(S(=O)(=O)N2CCN(C3CC(=O)N(c4ccccc4C(F)(F)F)C3=O)CC2)cc1 (centres undefined) | inconclusive: -15.9% | 
36 | COc1ccc(NC(=O)CNC(=O)Cn2cnc3sc4c(c3c2=O)CCCC4)cc1OC |  | inconclusive: 6.51 µM [activator, single point]
37 | COC(=O)COc1ccccc1C(N)=O | inconclusive: 5.06% | 
38 | O=C(Nc1ccc(Br)cc1F)c1ccc2nsnc2c1 | inconclusive: 2.49% | 
39 | O=C(NNC(=O)c1ccc(SCC2CCCO2)c([N+](=O)[O-])c1)c1ccc(Cl)c([N+](=O)[O-])c1 (centres undefined) | inconclusive: 377% | 
40 | COC(=O)c1cc(S(=O)(=O)NCc2ccccc2)cn1C |  | inconclusive: 0.461 µM [activator, full curve, poor fit]
41 | CCCCSc1nnc([C@H](CC(C)C)NC(=O)OC(C)(C)C)o1 | inconclusive: 16.2% | 
42 | Cc1cc(C(=O)NCC(=O)OCC(=O)N(C(C)C)C(C)C)ccc1[N+](=O)[O-] | inconclusive: 15.1% | 
43 | O=C(Nc1cccc2cccnc12)c1ccc(Cl)cc1 | inconclusive: -86.7% | 
44 | COc1cc(NC(=S)N2CCC(C(N)=O)CC2)cc(OC)c1 | inconclusive: 1.32% | 
45 | CN(Cc1cn(C)nc1-c1cccc(Cl)c1)C1CCOCC1 | inconclusive: 30.8% | 
46 | CC(=O)N1CCc2cc(S(=O)(=O)CCC(=O)NCCc3ccc(Cl)cc3)ccc21 |  | inconclusive: 5.8 µM [falling, single point]
47 | O=C(O)c1ccc2c(c1)C(=O)N(c1ccc([N+](=O)[O-])cn1)C2=O | inconclusive: -0.7% | 
48 | COc1ccc(C2Nc3ccccc3C(=O)N2C2CCCCC2)cc1 (centres undefined) | inconclusive: 6.69% | 
49 | COc1ccccc1OCCCN1C(=O)C(=O)c2cccc(C)c21 |  | inconclusive: 0.0052 µM [falling, full curve, poor fit]
